These results are taken from publication PMC8616582.

These are yes or no findings as the source states them, for the method shown. In cells and extracts the contact can be indirect. Here binding means that the protein was enriched with, or labelled near, the bait; the list need not be complete. No binding means not detected with the bait.

In test [1] the target is T1, DEPS-1::TurboID (C. elegans (endogenous in adult animals)) (UniProt Q9N303).
T1 sequence: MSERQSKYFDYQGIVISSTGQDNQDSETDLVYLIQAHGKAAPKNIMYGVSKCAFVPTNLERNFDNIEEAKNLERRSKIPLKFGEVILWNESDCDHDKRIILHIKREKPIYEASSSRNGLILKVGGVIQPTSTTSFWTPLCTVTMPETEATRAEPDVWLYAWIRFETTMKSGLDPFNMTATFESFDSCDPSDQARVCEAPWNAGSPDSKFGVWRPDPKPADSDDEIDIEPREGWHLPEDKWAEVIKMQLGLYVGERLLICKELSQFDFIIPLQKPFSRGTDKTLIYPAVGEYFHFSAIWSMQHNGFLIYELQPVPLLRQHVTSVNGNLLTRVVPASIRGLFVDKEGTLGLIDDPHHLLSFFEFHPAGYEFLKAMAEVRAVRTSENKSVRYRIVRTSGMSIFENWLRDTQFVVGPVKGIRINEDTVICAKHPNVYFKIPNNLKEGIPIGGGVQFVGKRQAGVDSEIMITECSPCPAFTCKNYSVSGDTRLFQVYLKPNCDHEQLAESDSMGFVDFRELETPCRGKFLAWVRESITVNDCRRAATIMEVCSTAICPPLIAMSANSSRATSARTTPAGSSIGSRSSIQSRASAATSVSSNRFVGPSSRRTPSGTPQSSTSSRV
Put plainly: proximity labelling; TurboID knocked in at the bait's own locus; animals grown at 15°C to L4, then overnight at 25°C; lysate in RIPA buffer, streptavidin magnetic beads overnight at 4°C, washes with RIPA, 1 M KCl, 0.1 M Na2CO3 and 2 M urea; on-bead trypsin digestion and LC-MS/MS; enrichment against untagged N2 (fold change ≥8, p<0.05), three biological ….

Test [2] concerns the target T2, TurboID::GLH-1 (C. elegans (endogenous in adult animals)) (UniProt P34689).
T2 sequence: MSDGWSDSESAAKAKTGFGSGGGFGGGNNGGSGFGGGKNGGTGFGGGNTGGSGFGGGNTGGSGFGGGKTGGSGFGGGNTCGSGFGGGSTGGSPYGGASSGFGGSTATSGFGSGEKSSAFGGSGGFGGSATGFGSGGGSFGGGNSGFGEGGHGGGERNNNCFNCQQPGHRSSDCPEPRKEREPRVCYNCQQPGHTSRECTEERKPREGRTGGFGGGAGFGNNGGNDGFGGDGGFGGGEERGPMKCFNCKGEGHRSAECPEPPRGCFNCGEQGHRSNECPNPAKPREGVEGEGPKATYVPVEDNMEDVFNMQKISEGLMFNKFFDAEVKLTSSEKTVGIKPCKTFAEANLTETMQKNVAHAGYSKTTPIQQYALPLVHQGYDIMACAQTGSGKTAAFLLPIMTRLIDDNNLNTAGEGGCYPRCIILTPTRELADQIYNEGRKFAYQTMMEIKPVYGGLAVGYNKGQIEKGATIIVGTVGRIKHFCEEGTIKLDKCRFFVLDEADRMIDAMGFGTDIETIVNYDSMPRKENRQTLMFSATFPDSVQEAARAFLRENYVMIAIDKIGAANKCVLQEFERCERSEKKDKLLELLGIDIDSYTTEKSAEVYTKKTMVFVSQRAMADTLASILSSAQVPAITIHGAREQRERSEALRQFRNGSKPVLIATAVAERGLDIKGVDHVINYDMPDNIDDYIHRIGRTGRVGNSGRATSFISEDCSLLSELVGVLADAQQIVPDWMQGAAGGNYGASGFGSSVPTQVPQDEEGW
Described as above.

B1: HRDE-1/WAGO-9 (protein, UniProt Q09249 1-1032)
chain: MADLLDKIMGSSSSNRIPKRDNRMNQDKDEPTSKRSAPMFSTPKSTTPIGRDSFATMDTMNVQMNMFPVDIKDMPHKIQRFQVDVIVCSSNGKQINANLGVLAAKGDVNSHNRRLAQYYIMRTVHDKLLVKFSGKSHHFLAYDCAATLYLPEGVYTGDDQEEVTLTIDDFPKEEWKFVSKLSRRKDDSYLVVLKPAGFVYTQGEVAQEEANRMELTRIIEIVTSQKLNNEDYLQFGNATFPRLSPPHSEPDAISEIRSGFAKVSRLSQNGGGKAFMTVDTKISPFYKDTSVIKFSSNKLSEMKGGGGGRGGYGRSDSRDSRGGYRGGRSDSRDFRGVYGNRGGNDRYRDESRGRRDMYDSRRDSGSSNGADYSPSDAAELEHAFGERGNTKRCIEEALKGLDVECTHLKGNLIRVSSIAENNAENTSFMMKDDKGEREVTVAEYFLLQYNIKLKYPRLPLVVSKRFKHESFFPMELLRIAPGQRIKVNKMSPTVQSAMTGRNASMPQHHVKLVQDILRDNLKLEQNKYMDAFGIKLMSTEPIQMTAKLLPPAQIKFKGQTYMPDMSRPAFRTQDKFVEPARIRKIGIVVFDNCIQMRQAEDFCDKLSNFCRDNGITVEKDSRDWSIRELNSSDSVAIQNLMKKWLDDRVDILVGIAREKKPDVHDILKYFEESIGLQTIQLCQQTVDKMMGGQGGRQTIDNVMRKFNLKCGGTNFFVEIPNAVRGKAVCSNNETLRKKLLEHVQFIGFEISHGASRTLFDRSRSQMDGEPSVVGVSYSLTNSTQLGGFTYLQTQKEYKLQKLDEFFPKCVRSYKEHSKTLPTRIVIYRVGAGEGNFNRVKEEVEEMRRTFDKIQPGYRPHLVVIIAQRASHARVFPSCISGNRATDQNIPSGTCVENVLTSYGYDEFILSSQTPLIGTVRPCKYTILVNDAKWSKNELMHLTYFRAFGHQVSYQPPSVPDVLYAAENLAKRGRNNYKIHQRYVNLQAVENRIIKDHSELINEDMREELAAAIVDEMSVAMNGMTIPKRNFWA
B1: the binding result in test [1] and in test [2] was “no binding” in each case.
